Assay results taken from PubChem BioAssay AID188 (DTP/NCI, 2004).
The mice bore no tumour; each value counts animals alive of those treated. Survivors were counted at the toxicity check, usually on the fifth day, unless a day is given; later deaths do not show. Schedules are NCI's codes, read here as Q, the interval in days (D) or hours (H), X, the number of doses. Some doses were run more than once; their values stand side by side, smallest first.

Tested on: CD2F1 mice, nontumored, toxicity/survival
Test: NCI In Vivo Anticancer Drug Screen. Data for tumor model Nontumored Animals (Toxicity Test) in CD2F1 (CDF1) mice
[1] = dose: 8.0 mg/kg/injection, schedule: Q01DX009 (ip), vehicle: saline
[2] = dose: 16.0 mg/kg/injection, schedule: Q01DX009 (ip), vehicle: saline
[3] = dose: 16.0 mg/kg/injection, schedule: Q01DX009 (oral), vehicle: saline
[4] = dose: 32.0 mg/kg/injection, schedule: Q01DX009 (ip), vehicle: saline
[5] = dose: 32.0 mg/kg/injection, schedule: Q01DX009 (oral), vehicle: saline

For `N[C@H](C(=O)O)[C@@H]1CC(Cl)=NO1`, the survivor count (dose: 1.5 mg/kg/injection, schedule: Q01DX009 (ip), vehicle: saline) was 10 of 10, the survivor count (dose: 3.0 mg/kg/injection, schedule: Q01DX009 (ip), vehicle: saline) was 10 of 10 and 4 of 4 and the survivor count (dose: 6.0 mg/kg/injection, schedule: Q01DX009 (ip), vehicle: saline) was 10 of 10 and 4 of 4. For the same compound, the survivor count (dose: 12.0 mg/kg/injection, schedule: Q01DX009 (ip), vehicle: saline) was 10 of 10 and 4 of 4 and the survivor count (dose: 24.0 mg/kg/injection, schedule: Q01DX009 (ip), vehicle: saline) was 4 of 4.

For `CN(C)N=Nc1ccc(NC(N)=O)cc1`, the survivor count (dose: 30.0 mg/kg/injection, schedule: Q01DX009 (ip), vehicle: Klucel (hydroxypropylcellulose) (HPC)) was 9 of 10, the survivor count (dose: 44.0 mg/kg/injection, schedule: Q01DX009 (ip), vehicle: Klucel (hydroxypropylcellulose) (HPC)) was 10 of 10 and the survivor count (dose: 67.0 mg/kg/injection, schedule: Q01DX009 (ip), vehicle: Klucel (hydroxypropylcellulose) (HPC)) was 10 of 10. The survivor count (dose: 100.0 mg/kg/injection, schedule: Q01DX009 (ip), vehicle: Klucel (hydroxypropylcellulose) (HPC)) was 5 of 10 and the survivor count (dose: 150.0 mg/kg/injection, schedule: Q01DX009 (ip), vehicle: Klucel (hydroxypropylcellulose) (HPC)) was 0 of 10.

For `CC(=O)Nc1nc(Br)c2ccccc2c1-c1ccc(N(CCOS(=O)(=O)c2ccc(C)cc2)CCOS(=O)(=O)c2ccc(C)cc2)cc1`, the survivor count (dose: 1.0 mg/kg/injection, schedule: Q01DX001 (ip), vehicle: other) was 2 of 2, the survivor count (dose: 10.0 mg/kg/injection, schedule: Q01DX001 (ip), vehicle: other) was 2 of 2 and the survivor count (dose: 100.0 mg/kg/injection, schedule: Q01DX001 (ip), vehicle: other) was 2 of 2.

`Cc1ccc(S(=O)(=O)N/N=C/C(=O)O)cc1` was tested, and the survivor count (dose: 1.0 mg/kg/injection, schedule: Q03HX024 (ip), vehicle: saline) was 8 of 8, the survivor count (dose: 2.0 mg/kg/injection, schedule: Q03HX016 (ip), vehicle: saline) was 8 of 8 and the survivor count (dose: 2.0 mg/kg/injection, schedule: Q03HX024 (ip), vehicle: saline) was 8 of 8. For the same compound, the survivor count (dose: 4.0 mg/kg/injection, schedule: Q03HX008 (ip), vehicle: saline) was 8 of 8, the survivor count (dose: 4.0 mg/kg/injection, schedule: Q03HX016 (ip), vehicle: saline) was 8 of 8 and the survivor count (dose: 4.0 mg/kg/injection, schedule: Q03HX024 (ip), vehicle: saline) was 8 of 8. The survivor count [1] was 8 of 8, the survivor count (dose: 8.0 mg/kg/injection, schedule: Q01DX009 (sc), vehicle: saline) was 8 of 8 and the survivor count (dose: 8.0 mg/kg/injection, schedule: Q03HX008 (ip), vehicle: saline) was 8 of 8. The survivor count (dose: 8.0 mg/kg/injection, schedule: Q03HX016 (ip), vehicle: saline) was 8 of 8, the survivor count (dose: 8.0 mg/kg/injection, schedule: Q03HX024 (ip), vehicle: saline) was 8 of 8 and the survivor count [2] was 8 of 8. The survivor count [3] was 8 of 8, the survivor count (dose: 16.0 mg/kg/injection, schedule: Q01DX009 (sc), vehicle: saline) was 8 of 8 and the survivor count (dose: 16.0 mg/kg/injection, schedule: Q03HX008 (ip), vehicle: saline) was 8 of 8. For the same compound, the survivor count (dose: 16.0 mg/kg/injection, schedule: Q03HX016 (ip), vehicle: saline) was 7 of 8, the survivor count (dose: 16.0 mg/kg/injection, schedule: Q03HX024 (ip), vehicle: saline) was 8 of 8 and the survivor count (dose: 16.0 mg/kg/injection, schedule: Q04DX003 (ip), vehicle: saline) was 8 of 8. The survivor count (dose: 16.0 mg/kg/injection, schedule: Q08DX002 (ip), vehicle: saline) was 8 of 8, the survivor count (dose: 32.0 mg/kg/injection, schedule: Q01DX001 (ip), vehicle: saline) was 8 of 8 and the survivor count (dose: 32.0 mg/kg/injection, schedule: Q01DX001 (sc), vehicle: saline) was 8 of 8. The survivor count [4] was 8 of 8, the survivor count [5] was 8 of 8 and the survivor count (dose: 32.0 mg/kg/injection, schedule: Q01DX009 (sc), vehicle: saline) was 8 of 8. For the same compound, the survivor count (dose: 32.0 mg/kg/injection, schedule: Q03HX008 (ip), vehicle: saline) was 8 of 8, the survivor count (dose: 32.0 mg/kg/injection, schedule: Q03HX016 (ip), vehicle: saline) was 8 of 8 and the survivor count (dose: 32.0 mg/kg/injection, schedule: Q03HX024 (ip), vehicle: saline) was 8 of 8. The survivor count (dose: 32.0 mg/kg/injection, schedule: Q04DX003 (ip), vehicle: saline) was 8 of 8, the survivor count (dose: 32.0 mg/kg/injection, schedule: Q08DX002 (ip), vehicle: saline) was 8 of 8 and the survivor count (dose: 64.0 mg/kg/injection, schedule: Q01DX001 (ip), vehicle: saline) was 8 of 8. The survivor count (dose: 64.0 mg/kg/injection, schedule: Q01DX001 (sc), vehicle: saline) was 8 of 8, the survivor count (dose: 64.0 mg/kg/injection, schedule: Q01DX009 (ip), vehicle: saline) was 8 of 8 and the survivor count (dose: 64.0 mg/kg/injection, schedule: Q01DX009 (oral), vehicle: saline) was 8 of 8. For the same compound, the survivor count (dose: 64.0 mg/kg/injection, schedule: Q01DX009 (sc), vehicle: saline) was 8 of 8, the survivor count (dose: 64.0 mg/kg/injection, schedule: Q03HX008 (ip), vehicle: saline) was 7 of 8 and the survivor count (dose: 64.0 mg/kg/injection, schedule: Q03HX016 (ip), vehicle: saline) was 8 of 8. For the same compound, the survivor count (dose: 64.0 mg/kg/injection, schedule: Q04DX003 (ip), vehicle: saline) was 8 of 8, the survivor count (dose: 64.0 mg/kg/injection, schedule: Q08DX002 (ip), vehicle: saline) was 8 of 8 and the survivor count (dose: 128.0 mg/kg/injection, schedule: Q01DX001 (ip), vehicle: saline) was 8 of 8. The survivor count (dose: 128.0 mg/kg/injection, schedule: Q01DX001 (oral), vehicle: saline) was 8 of 8, the survivor count (dose: 128.0 mg/kg/injection, schedule: Q01DX001 (sc), vehicle: saline) was 8 of 8 and the survivor count (dose: 128.0 mg/kg/injection, schedule: Q01DX009 (ip), vehicle: saline) was 7 of 8. For the same compound, the survivor count (dose: 128.0 mg/kg/injection, schedule: Q01DX009 (oral), vehicle: saline) was 8 of 8, the survivor count (dose: 128.0 mg/kg/injection, schedule: Q01DX009 (sc), vehicle: saline) was 8 of 8 and the survivor count (dose: 128.0 mg/kg/injection, schedule: Q04DX003 (ip), vehicle: saline) was 8 of 8. For the same compound, the survivor count (dose: 128.0 mg/kg/injection, schedule: Q08DX002 (ip), vehicle: saline) was 8 of 8, the survivor count (dose: 256.0 mg/kg/injection, schedule: Q01DX001 (ip), vehicle: saline) was 8 of 8 and the survivor count (dose: 256.0 mg/kg/injection, schedule: Q01DX001 (oral), vehicle: saline) was 8 of 8. For the same compound, the survivor count (dose: 256.0 mg/kg/injection, schedule: Q01DX001 (sc), vehicle: saline) was 8 of 8, the survivor count (dose: 256.0 mg/kg/injection, schedule: Q01DX009 (oral), vehicle: saline) was 8 of 8 and the survivor count (dose: 256.0 mg/kg/injection, schedule: Q04DX003 (ip), vehicle: saline) was 8 of 8. For the same compound, the survivor count (dose: 256.0 mg/kg/injection, schedule: Q08DX002 (ip), vehicle: saline) was 8 of 8, the survivor count (dose: 512.0 mg/kg/injection, schedule: Q01DX001 (ip), vehicle: saline) was 8 of 8 and the survivor count (dose: 512.0 mg/kg/injection, schedule: Q01DX001 (oral), vehicle: saline) was 8 of 8. For the same compound, the survivor count (dose: 512.0 mg/kg/injection, schedule: Q01DX001 (sc), vehicle: saline) was 7 of 8, the survivor count (dose: 512.0 mg/kg/injection, schedule: Q01DX009 (oral), vehicle: saline) was 8 of 8 and the survivor count (dose: 512.0 mg/kg/injection, schedule: Q08DX002 (ip), vehicle: saline) was 8 of 8. The survivor count (dose: 1024.0 mg/kg/injection, schedule: Q01DX001 (oral), vehicle: saline) was 7 of 8 and the survivor count (dose: 2048.0 mg/kg/injection, schedule: Q01DX001 (oral), vehicle: saline) was 7 of 8.

`COc1ccc(-c2nc3c(N)nc(N)nc3nc2N)cc1OC` was tested, and the survivor count (dose: 1.0 mg/kg/injection, schedule: Q01DX001 (ip), vehicle: water) was 2 of 2, the survivor count (dose: 10.0 mg/kg/injection, schedule: Q01DX001 (ip), vehicle: water) was 2 of 2 and the survivor count (dose: 100.0 mg/kg/injection, schedule: Q01DX001 (ip), vehicle: water) was 2 of 2.

With `Nc1ncn(C2OC(CO)C(O)C2O)c(=O)n1` (configuration not stated) the survivor count (dose: 0.16 mg/kg/injection, schedule: Q01DX009 (ip), vehicle: saline) was 8 of 8, the survivor count (dose: 0.31 mg/kg/injection, schedule: Q01DX009 (ip), vehicle: saline) was 8 of 8 and the survivor count (dose: 0.5 mg/kg/injection, schedule: Q01DX009 (ip), vehicle: saline) was 8 of 8. For the same compound, the survivor count (dose: 0.63 mg/kg/injection, schedule: Q01DX009 (ip), vehicle: saline) was 8 of 8, the survivor count (dose: 1.0 mg/kg/injection, schedule: Q01DX009 (ip), vehicle: saline) was 6 of 6 and 8 of 8 and the survivor count (dose: 1.0 mg/kg/injection, schedule: Q01DX009 (oral), vehicle: saline) was 8 of 8. The survivor count (dose: 1.25 mg/kg/injection, schedule: Q01DX009 (ip), vehicle: saline) was 8 of 8, the survivor count (dose: 1.75 mg/kg/injection, schedule: Q04DX003 (ip), vehicle: saline) was 8 of 8 and the survivor count (dose: 2.0 mg/kg/injection, schedule: Q01DX009 (ip), vehicle: saline) was 6 of 6 and 8 of 8. The survivor count (dose: 2.0 mg/kg/injection, schedule: Q01DX009 (oral), vehicle: saline) was 8 of 8, the survivor count (dose: 2.5 mg/kg/injection, schedule: Q01DX009 (ip), vehicle: saline) was 8 of 8 and the survivor count (dose: 3.5 mg/kg/injection, schedule: Q04DX003 (ip), vehicle: saline) was 8 of 8. For the same compound, the survivor count (dose: 4.0 mg/kg/injection, schedule: Q01DX009 (ip), vehicle: saline) was 6 of 6 and 8 of 8, the survivor count (dose: 4.0 mg/kg/injection, schedule: Q01DX009 (oral), vehicle: saline) was 7 of 7 and the survivor count (dose: 5.0 mg/kg/injection, schedule: Q01DX009 (ip), vehicle: saline) was 8 of 8. For the same compound, the survivor count (dose: 7.0 mg/kg/injection, schedule: Q04DX003 (ip), vehicle: saline) was 8 of 8, the survivor count [1] was 6 of 6 and 8 of 8 and the survivor count (dose: 8.0 mg/kg/injection, schedule: Q01DX009 (oral), vehicle: saline) was 8 of 8. The survivor count (dose: 10.0 mg/kg/injection, schedule: Q01DX009 (ip), vehicle: saline) was 8 of 8, the survivor count (dose: 14.0 mg/kg/injection, schedule: Q04DX003 (ip), vehicle: saline) was 8 of 8 and the survivor count [2] was 6 of 8 and 6 of 6. The survivor count [3] was 7 of 8, the survivor count (dose: 28.0 mg/kg/injection, schedule: Q04DX003 (ip), vehicle: saline) was 8 of 8 and the survivor count [4] was 5 of 6. The survivor count [5] was 7 of 8.

In the case of `Cc1c(C)c2c(c(C)c1O)CCC(C)(CCCC(C)CCCC(C)CCCC(C)C)O2` (configuration not stated), the survivor count (dose: 170.0 mg/kg/injection, schedule: Q01DX001 (ip), vehicle: olive oil, sesame oil, peanut oil) is reported as 6 of 6 and the survivor count (dose: 340.0 mg/kg/injection, schedule: Q01DX001 (ip), vehicle: olive oil, sesame oil, peanut oil) is reported as 6 of 6.
